In all, about 410,000 compounds went through this assay and about 2,000 (0.49%) were called active. Inconclusive means that the source gave no clear call. Such entries were picked first, then a sample of the others. Calls follow the shape of the full dose curve; tested in HEK293 reporter line. Potencies beside an inconclusive call are fits to weak or partial responses and may not hold up.
Assay: qHTS Assay for Foot and Mouth Disease Virus Antivirals: Primary Screen against the MLPCN compound library; also: nearly all actives have a fitted effect of over 55% in size
Details: FMDV antiviral cell-based qHTS; activity, negative = inhibition: at 57.9 µM (top of the series)
With C#CC[N+]1(CC#Cc2ccccc2)CCCC1 the Potency was inconclusive: 10 µM [inhibitor, partial curve, poor fit].
With COc1ccc(C2SCC(=O)N2c2nc3ccccc3s2)cc1 (centres undefined) the Potency was inconclusive: 7.08 µM [inhibitor, partial curve].
For Cc1ccc2nc(N(CCCN(C)C)C(=O)c3sc4ccccc4c3Cl)sc2c1, the Potency was inconclusive: 17.8 µM [inhibitor, partial curve, poor fit].
For Cc1ccc(S(=O)(=O)N(C)C)cc1NC(=O)C(C)N(C)Cc1sccc1C (centres undefined), the Potency was inconclusive: 15.8 µM [inhibitor, partial curve, poor fit].
For O=C(/C=C/c1ccc(Cl)cc1)N1CCN(c2ccc([N+](=O)[O-])c(N3CCOCC3)c2)CC1, the Potency was inconclusive: 14.1 µM [inhibitor, partial curve, poor fit].
With COc1ccc(NC(=O)N2CCC3(CC2)CCN(C(=O)Oc2ccccc2)CC3)cc1 the Potency was inconclusive: 11.2 µM [inhibitor, partial curve, poor fit].
With CC(C)Oc1ccc(CNC(=O)c2ccc(NC(=O)N3CCSc4ncccc43)cc2)cc1 the Potency was inconclusive: 12.6 µM [inhibitor, partial curve].
For COc1ccc2nc(NC(=O)c3ccccc3O)sc2c1, the Potency was inconclusive: 20 µM [inhibitor, single point].
For Cc1ccc2nc(NC3=NC4(CCCC4)C4=C(CCCC4=O)N3)oc2c1, the Potency was inconclusive: 39.8 µM [inhibitor, partial curve, poor fit].
In the case of COc1ccc(-c2nc(-c3ccccn3)no2)cc1, the Potency was inconclusive: 7.94 µM [inhibitor, full curve, poor fit].
For C=CCn1cc(/C=N/Nc2nc3ccccc3[nH]2)c2ccccc21, the Potency was inconclusive: 39.8 µM [inhibitor, single point].
With CC1(C)C(=O)OC(c2cc(Br)ccc2O)C(C)(C)C1=O (centres undefined) the Potency was inconclusive: 35.5 µM [inhibitor, single point].
With O=C(NCCCCc1ccccc1)NC[C@@H]1CC[C@@H](Cc2ccc(-c3ccccc3)cc2)O1 the “activity, negative = inhibition” value was inactive: -31.2%.
For CC(C)OCCCNC(=O)c1c(N)n(Cc2cccs2)c2nc3ccccc3nc12, the Potency was inconclusive: 8.91 µM [inhibitor, partial curve, poor fit].
With COC(=O)c1[nH]c2ccccc2c1NC(=O)CN1CCN(c2cccc(Cl)c2)CC1 the Potency was inconclusive: 14.1 µM [inhibitor, partial curve, poor fit].
In the case of O=C(c1ccc(S(=O)(=O)Cc2ccccc2Cl)c([N+](=O)[O-])c1)N1CCN(c2ccccn2)CC1, the Potency was inconclusive: 15.8 µM [inhibitor, partial curve, poor fit].
With COc1cc(SC)ccc1C(=O)NCCOc1c(C)cc(C)cc1C the “activity, negative = inhibition” value was inactive: -35.5%.
With Cc1csc(NC(=O)/C=C/c2ccc3c(c2)OCO3)n1 the Potency was inconclusive: 11.2 µM [inhibitor, single point].
With Cc1cccc(NC(=O)c2cc(-c3ccc4c(c3)OCCO4)on2)c1 the Potency was inconclusive: 39.8 µM [inhibitor, single point].
For Cc1ccc(Cl)cc1N1CCN(C(=O)C2CCN(S(=O)(=O)c3cccnc3)CC2)CC1, the Potency was inconclusive: 15.8 µM [inhibitor, partial curve, poor fit].
With CCOC(=O)N1CCN(C(=O)C(NC(=O)c2ccc(C(C)(C)C)cc2)C(C)C)CC1 (centres undefined) the Potency was inconclusive: 11.2 µM [inhibitor, partial curve].
For O=C(COC(=O)C1(c2ccc(F)cc2)CCCC1)NCc1ccco1, the Potency was inconclusive: 31.6 µM [inhibitor, partial curve, poor fit].
For N/C(=N\OC(=O)c1ccccc1Cl)c1ccccn1, the Potency was inconclusive: 10 µM [inhibitor, partial curve, poor fit].
In the case of CC(=O)OC(C)(C)/C=C/C(=O)C(C)(O)C1[C@H](O)C[C@@]2(C)C3CC=C4C(CC[C@@H](O)C4(C)C)[C@]3(CO)C(=O)C[C@]12C (some centres undefined), the Potency was inconclusive: 17.8 µM [inhibitor, partial curve, poor fit].
In the case of Cc1ccc(S(=O)(=O)N(C)c2ccc(C(=O)Nc3cccc(C)n3)cc2)cc1, the Potency was inconclusive: 25.1 µM [inhibitor, partial curve, poor fit].
In the case of Cc1ccc(NC(=O)c2cc3ccccc3oc2=O)cc1S(=O)(=O)N(C)C, the “activity, negative = inhibition” value was inactive: -86.8%.
In the case of Cc1ccc(S(=O)(=O)CC(CN2CCCCC2)N2CCCCC2)cc1 (centres undefined), the Potency was inconclusive: 28.2 µM [inhibitor, partial curve, poor fit].
With O=C(/C=C/c1cn(-c2ccccc2)nc1-c1cccnc1)c1ccco1 the Potency was inconclusive: 14.1 µM [inhibitor, partial curve, poor fit].
For O=C(c1ccc(F)cc1)N1CCC(c2nc(-c3ccc(S(=O)(=O)N4CCCC4)cc3)no2)CC1, the “activity, negative = inhibition” value was inactive: -35.1%.
With NS(=O)(=O)c1ccc(CCNC(=O)CN2CCC(Cc3ccccc3)CC2)cc1 the activity, negative = inhibition was inconclusive: -30.1% [inhibitor].
With O=C1Nc2ccccc2/C1=C/C(=O)c1cccs1 the Potency was inconclusive: 22.4 µM [inhibitor, partial curve, poor fit].
With O=C(NCCc1nc(-c2ccc(F)cc2)no1)c1ccc(F)cc1 the “activity, negative = inhibition” value was inactive: -36.1%.
In the case of CCOc1ccc(C(=O)N(Cc2cc(OC)c(OC)c(OC)c2)c2ccccn2)cc1, the “activity, negative = inhibition” value was inactive: -32.4%.
With Cc1cc(CSc2ccccc2)ccc1NC(=O)c1ccc(CN2CCOCC2)cc1 the Potency was inconclusive: 12.6 µM [inhibitor, partial curve, poor fit].
With COc1cccc(-c2cc3onc(-c4ccccc4)c3c(=O)n2C)c1 the Potency was inconclusive: 35.5 µM [inhibitor, single point].
With COc1ccc2c(c1)-c1nc(-n3ncc(C(=O)N(C)C(C)c4ccon4)c3C3CC3)ncc1CC2 (centres undefined) the Potency was inconclusive: 39.8 µM [inhibitor, single point].
With COC(=O)c1cc(-c2ccc(S(=O)(=O)N3CCCCC3)cc2)c(C(F)(F)F)s1 the Potency was inconclusive: 8.91 µM [inhibitor, partial curve, poor fit].
For O=C(CSc1nnc(COc2ccccc2)n1Cc1ccco1)c1ccc(F)cc1, the Potency was inconclusive: 39.8 µM [inhibitor, single point].
In the case of CCOC(=O)c1ccc(Nc2ccc(-c3ccc(OC)c(OC)c3)nn2)cc1, the Potency was inconclusive: 8.91 µM [inhibitor, partial curve, poor fit].
For S=C(Nc1ccc(Cl)c(Cl)c1)NC1CCN(Cc2ccccc2)CC1, the Potency was inconclusive: 14.1 µM [inhibitor, partial curve, poor fit].
In the case of O=S(Cc1ccc(Br)cc1)Cc1nnc(SCc2c(Cl)cccc2Cl)n1-c1ccccc1 (centres undefined), the Potency was inconclusive: 28.2 µM [inhibitor, partial curve, poor fit].
With CN=c1scc(-c2ccco2)n1/N=C/c1ccc(O)c(O)c1 the Potency was inconclusive: 14.1 µM [inhibitor, partial curve, poor fit].
With COc1ccc(S(=O)(=O)Nc2nc3ccccc3s2)cc1 the “activity, negative = inhibition” value was inactive: 118%.
In the case of O=C(Cn1cc(C(F)(F)F)ccc1=O)N/N=C/c1cccc(Cl)c1, the Potency was inconclusive: 14.1 µM [inhibitor, partial curve].
In the case of CC(C)c1ccc(C2=CC(c3cccc(Cl)c3)n3c(nc4ccccc43)N2)cc1 (centres undefined), the Potency was inconclusive: 20 µM [inhibitor, single point].
In the case of Oc1cccc(/C=N/N=C/c2cccc(O)c2O)c1O, the Potency was inconclusive: 15.8 µM [inhibitor, partial curve, poor fit].
With COc1cc2c(cc1OC)C(c1ccc(-c3cc(Cl)ccc3Cl)o1)=NCC2 the Potency was inconclusive: 17.8 µM [inhibitor, partial curve, poor fit].
In the case of CCN(CC)S(=O)(=O)c1ccc(C)c(NCC(=O)Nc2ccc(C#N)c(Cl)c2)c1, the Potency was inconclusive: 39.8 µM [inhibitor, single point].
With CS(=O)(=O)c1ccc(Sc2nc3ccccc3s2)c([N+](=O)[O-])c1 the Potency was inconclusive: 35.5 µM [inhibitor, partial curve, poor fit].
With COc1ccc(NC(=O)COc2ccc(N(C)S(=O)(=O)c3ccc(Cl)cc3)cc2)cc1OC the Potency was inconclusive: 10 µM [inhibitor, partial curve, poor fit].
For CC(=O)C1=C(c2ccc(F)cc2)N(C(C)=O)n2c(nnc2C2CCCCC2)S1, the “activity, negative = inhibition” value was inactive: -32.7%.
In the case of Cc1cc(C(=O)COC(=O)C2=COCCO2)c(C)n1-c1cccc(F)c1, the Potency was inconclusive: 22.4 µM [inhibitor, single point].
In the case of COc1ccccc1NC1=C(N2CCCCC2)C(=O)c2ccccc2C1=O, the Potency was inconclusive: 10 µM [inhibitor, partial curve, poor fit].
In the case of CC(=O)c1ccc(NC(=O)c2noc3c2CCC3)cc1, the Potency was active: 20 µM.
For COc1ccccc1[C@]1(C)ON(c2ccccc2C(F)(F)F)C1=O, the Potency was active: 14.1 µM.
With CC(C)(C)C(=O)Nc1ccc(-c2cn3ccsc3n2)cc1 the Potency was inconclusive: 14.1 µM [inhibitor, single point].
With COc1ccc(-n2c(/C=C/c3cccc(F)c3)nc3ccccc3c2=O)c(OC)c1 the Potency was inconclusive: 22.4 µM [inhibitor, partial curve, poor fit].
With COc1ccc(CN2C(=O)C(C)N(C(=O)c3c(F)cccc3F)c3ccccc32)cc1 (centres undefined) the Potency was inconclusive: 35.5 µM [inhibitor, partial curve, poor fit].
For Cc1csc(NC(=O)c2ccc(N3CCCC3=O)cc2)n1, the Potency was inconclusive: 11.2 µM [inhibitor, partial curve, poor fit].

Source: PubChem BioAssay AID1347131 (National Center for Advancing Translational Sciences (NCATS), 2019)
Potency is read from the fitted curve at half-maximal effect.
